Laboratory results reported in PubChem BioAssay AID1671190 (National Center for Advancing Translational Sciences (NCATS), 2021).
Out of some 580,000 compounds screened, about 6,100 (1.1%) were called active. The inconclusive results got no clear call from the source; some entries with a clear call stand among them for comparison. Calls follow the shape of the dose curve; as a rule, active = well fitted inhibition curve with a large enough effect; inconclusive = small, poorly fitted or top-dose-only effect, or another doubt; inactive = no such curve, though single readings can be large or run the other way. Where the call is inconclusive, the potency comes from a doubtful curve fit.

The chains behind the UniProt entries cited, without tags or fusion partners.
UniProt P18054, whole entry, looked up: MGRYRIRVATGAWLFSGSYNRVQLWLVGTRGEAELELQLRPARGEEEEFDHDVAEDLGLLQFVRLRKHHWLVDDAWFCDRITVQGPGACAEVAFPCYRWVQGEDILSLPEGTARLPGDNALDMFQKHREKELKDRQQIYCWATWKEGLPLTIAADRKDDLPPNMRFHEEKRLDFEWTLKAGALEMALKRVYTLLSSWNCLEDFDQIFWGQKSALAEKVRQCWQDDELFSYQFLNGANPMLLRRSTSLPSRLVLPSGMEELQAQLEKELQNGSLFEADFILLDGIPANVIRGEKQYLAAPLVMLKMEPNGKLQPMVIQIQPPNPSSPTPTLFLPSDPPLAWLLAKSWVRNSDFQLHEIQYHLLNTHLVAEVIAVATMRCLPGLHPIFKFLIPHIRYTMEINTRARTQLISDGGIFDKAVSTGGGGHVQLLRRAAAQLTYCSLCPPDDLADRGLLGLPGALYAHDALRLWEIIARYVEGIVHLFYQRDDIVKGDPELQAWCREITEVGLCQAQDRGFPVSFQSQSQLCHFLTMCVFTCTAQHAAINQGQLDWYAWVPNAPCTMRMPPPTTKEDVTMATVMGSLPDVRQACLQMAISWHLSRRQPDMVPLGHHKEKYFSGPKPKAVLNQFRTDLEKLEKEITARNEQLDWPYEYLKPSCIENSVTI

The compounds below were run against Polyunsaturated fatty acid lipoxygenase ALOX12 (Homo sapiens) (UniProt P18054) (assay: Primary qHTS assay for inhibitors of human arachidonate 12S-lipoxygenase (ALOX12): Round 2). Details: purified 12hLO, xylenol orange hydroperoxide absorbance; activity change, negative = inhibition: at 108 µM (top of the series) unless noted.
Procedure, shortened: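 Hydroperoxide product was detected by ferrous iron/xylenol orange as the 573 to 405 nm absorbance ratio. Arachidonic acid at 40 uM (final) was turned over for 30 min at room temperature by 150 nM human 12hLO, pH 7.0 Hepes buffer, after 15 min compound preincubation.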
% is scaled to controls: 0 for no effect and ±100 for the full control effect; potency is read from the fitted curve at half-maximal effect.

| Structure (SMILES) | Potency | activity change, negative = inhibition |
| --- | --- | --- |
| O=C(C1CCOCC1)N1CCCC1c1nc(C2CCOCC2)no1 (stereo not given) | inactive |  |
| CCN1C(=O)/C(=C/c2ccc(OCc3ccc(C(=O)O)cc3)c(Cl)c2)NC1=S | inactive |  |
| Cc1ccc(NC(=O)CC23CC4CC(CC(C4)C2)C3)cc1 | inactive |  |
| O=C(Nc1ccc(F)cc1F)c1cc(C2CC2)nn1-c1ccccc1 | inconclusive: 28.2 µM [inhibitor, partial curve] |  |
| O=C(COC(=O)C1CC1)Nc1ccc(Oc2ccccc2)cc1 | inconclusive: 158 µM [inhibitor, single point] |  |
| N#C/C(=C/c1ccccc1OCc1ccc(F)cc1)c1ccc(C(=O)O)cc1 | inconclusive: 50.1 µM [inhibitor, partial curve, poor fit] |  |
| COc1ccc(NS(=O)(=O)c2cccc(C(=O)NCC(c3ccc(OC)cc3)N3CCCCC3)c2)cc1 (stereo not given) | inconclusive: 50.1 µM [inhibitor, single point] |  |
| Cc1ccc(C(CNC(=O)C(=O)Nc2ccc3c(c2)OCCO3)N2CCN(C)CC2)cc1 (stereo not given) | inconclusive: 50.1 µM [inhibitor, partial curve, poor fit] |  |
| COCCNC(=O)C/C(C)=N/NC(=O)C(=O)NC1CCCCC1 | inactive |  |
| COc1ccc(NS(=O)(=O)c2ccc(-n3nnc4ccccc43)c([N+](=O)[O-])c2)cc1 | inconclusive: 44.7 µM [inhibitor, partial curve, poor fit] |  |
| O=C(Cn1nc(C(=O)O)c2ccccc2c1=O)Nc1ccccc1Cl | inconclusive: 70.8 µM [inhibitor, partial curve, poor fit] |  |
| COc1cccc(N2CCN(c3ccc(S(=O)(=O)N4CCN(C)CC4)cc3[N+](=O)[O-])CC2)c1 | inconclusive: 44.7 µM [inhibitor, partial curve, poor fit] |  |
| CCC1CSC(=Nc2ccc(C)cc2)N1C(=O)CN1C(=O)NC2(CCCC2)C1=O (stereo not given) | inactive |  |
| CCOC(=O)C1=C[C@@H](C(C)(C)C)N(S(=O)(=O)c2ccc(C)cc2)[C@H]1c1cccc(Cl)c1 | inactive |  |
| O=c1n(Cc2ccc3ccccc3n2)nc(C2CCNCC2)n1Cc1ccccc1 | inconclusive: 12.6 µM [inhibitor, full curve] |  |
| CCOc1ccc2ncc(S(=O)(=O)c3ccccc3)c(N3CCN(c4ccccc4)CC3)c2c1 | inactive |  |
| C=C(C)CSc1cc(C)c(C#N)c2nc3ccccc3n12 | inconclusive: 44.7 µM [inhibitor, partial curve, poor fit] |  |
| Cn1c(=O)c(C(=O)NNC(=O)c2ccc(Br)cc2)c(O)c2ccccc21 | inactive |  |
| COc1cccc(Nc2ncc3nc(C)c(=O)n(CCc4ccccc4)c3n2)c1 | inconclusive: 15.8 µM [inhibitor, single point] |  |
| Cc1cccc(NCCNc2cccc(C)c2)c1 | inactive |  |
| Cc1onc(-c2ccccc2Cl)c1C(=O)NCc1ccc2c(c1)cc(C)n2C | inconclusive: 126 µM [inhibitor, single point] |  |
| CCCCC[C@@H](C)N1C[C@H](COCc2ccccc2)Oc2cc(N3CC[C@H](N(C)C)C3)ccc2S1(=O)=O | inactive |  |

| Structure (SMILES) | Potency | activity change, negative = inhibition |
| --- | --- | --- |
| O=c1n(-c2ccc(F)cc2F)nc2n1CCN(Cc1cccc3ccccc13)C2 | active: 28.2 µM |  |
| CN(C)C(=O)c1ccc(-c2ccc3ncnc(NCc4cccnc4)c3c2)cc1 | inconclusive: 7.94 µM [inhibitor, full curve, poor fit] |  |
| COCCn1nnnc1C(C(C)C)N1CCOCC1 (stereo not given) | inconclusive: 12.6 µM [inhibitor, full curve, poor fit] |  |
| CCCCc1ccc(NC(=O)N2CCC3(CC2)OCCO3)cc1 |  | inconclusive: -37.1% [inhibitor] |
| Cc1nc2ccccc2n1CCc1nc2c3ccccc3nc(SCc3cccc(F)c3)n2n1 | inconclusive: 100 µM [inhibitor, partial curve, poor fit] |  |
| CCOC(=O)c1sc(N=NC2=C(O)CCCC2=O)c(C(=O)OCC)c1C | inconclusive: 44.7 µM [inhibitor, partial curve, poor fit] |  |
| NS(=O)(=O)c1cccc(NC(=O)COC(=O)Cn2cnc3ccccc32)c1 | inactive |  |
| Cc1cc(C)cc(NC(=O)C2CC(=O)n3c(nc4ccccc43)N2)c1 (stereo not given) | inconclusive: 158 µM [inhibitor, single point] |  |
| COc1ccc(-c2noc([C@@H]3CCCN3C(=O)c3cccc(C)c3)n2)cc1 | inactive |  |
| Cc1cc(C)cc(OCCn2c(C3CC(=O)N(c4ccccc4Cl)C3)nc3ccccc32)c1 (stereo not given) | inactive |  |
| NC(=O)CC(O)c1cccc(Cl)c1 (stereo not given) | inactive |  |
| Cc1cccc2sc(N(CCCN(C)C)C(=O)c3cc4ccccc4oc3=O)nc12 | inconclusive: 50.1 µM [inhibitor, partial curve, poor fit] |  |
| CCNC(=O)N1CC(C(=O)NCc2ccco2)CC(c2ccc(OC)c(OC)c2)C1 (stereo not given) | inconclusive: 11.2 µM [inhibitor, full curve, poor fit] |  |
| O=C1NC[C@@H](CCCCN2C[C@H](Cc3ccc(O)cc3)N(CCC3CCCCC3)C(=O)C2=O)N(Cc2ccccc2)C1=O | inconclusive: 44.7 µM [inhibitor, partial curve, poor fit] |  |
| COc1ccc(C2=C(O)C(=O)N(c3ccc(OC)cc3)C2c2cccc(Br)c2)cc1 (stereo not given) | inactive |  |
| CC(=O)c1c(C)nn(C(C)CC(=O)NCc2cc3n(n2)CCNC3)c1C (stereo not given) | inconclusive: 8.91 µM [inhibitor, full curve] |  |
| CC1CCCC(NC(=O)NC(=O)COC(=O)c2ccc(O)cc2O)C1C (stereo not given) | inconclusive: 89.1 µM [inhibitor, partial curve, poor fit] |  |
| CCOC(=O)N/N=C/c1ccc(N2CCOCC2)s1 | inconclusive: 31.6 µM [inhibitor, partial curve] |  |
| O=C(NCCCNCc1ccccc1)c1ccncc1 | inconclusive: 50.1 µM [inhibitor, partial curve, poor fit] |  |
| COCCN(CC(=O)NCC1CCCO1)C(=O)CCC(=O)Nc1ccccn1 (stereo not given) | inactive |  |
| CC(C)Oc1cccc(C(=O)Nc2ccc(N3CCN(C)CC3)cc2)c1 | inconclusive: 79.4 µM [inhibitor, partial curve, poor fit] |  |
| C=CCSc1nc2sc3c(c2c(=O)n1-c1ccc(C)cc1)CCN(C)C3 | inconclusive: 31.6 µM [inhibitor, partial curve, poor fit] |  |

| Structure (SMILES) | Potency | activity change, negative = inhibition |
| --- | --- | --- |
| O=C(O)c1ccc(/C=N/NC(=O)c2cc(-c3cccs3)nc3ccccc23)cc1 | inconclusive: 7.08 µM [inhibitor, full curve, poor fit] |  |
| Cc1ccc(C(=O)COC(=O)c2ccc(N3CCCC3=O)cc2)cc1C | inconclusive: 39.8 µM [inhibitor, single point] |  |
| CC(CN1CCOCC1)OC(=O)c1ccccc1Br (stereo not given) | inconclusive: 35.5 µM [inhibitor, partial curve, poor fit] |  |
| O=C1NC(C(=O)O)=CC(c2cc(Cl)ccc2Cl)N1 (stereo not given) | inconclusive: 0.0891 µM [inhibitor, full curve, poor fit] |  |
| O=C(Nc1ccccc1Cl)c1ccc2ccccc2c1 | inconclusive: 100 µM [inhibitor, single point] |  |
| CN1CCN(S(=O)(=O)c2cccc(C(=O)Nc3nccs3)c2)CC1 | inconclusive: 4.47 µM [inhibitor, full curve, poor fit] |  |
| Cc1cc(OCC(=O)Nc2ccc(S(=O)(=O)N3CCN(C)CC3)cc2)cc(C)c1Cl | inconclusive: 100 µM [inhibitor, single point] |  |
| COc1ccccc1CCC(=O)N1CCC2(CC1)NC(=O)N(c1ccccc1)N2 | active: 2 µM |  |
| COc1ccccc1-n1[nH]c(C)c(Cc2cccc(Cl)c2)c1=O | inconclusive: 2 µM [inhibitor, full curve, poor fit] |  |
| CCOC(=O)c1cc(S(=O)(=O)Nc2ccc(Br)c(C)c2)[nH]n1 | inconclusive: 25.1 µM [inhibitor, partial curve, poor fit] |  |
| COc1ccc(C(=O)/C(=C/c2ccc(C)cc2C)c2nc3ccccc3[nH]2)cc1 | inconclusive: 126 µM [inhibitor, single point] |  |
| COc1ccc(-n2c(C)cc(C(=O)CSc3ccc(NC(C)=O)cc3)c2C)cc1 | inactive |  |
| CNC(=O)N1CCC(C2CCN(S(=O)(=O)c3cnc[nH]3)C2)CC1 (stereo not given) | inactive |  |
| COc1ccccc1Cc1c(-c2ccc(C#N)cc2)nc2ccc(C)cn12 | inconclusive: 112 µM [inhibitor, single point] |  |
| COc1ccc(NC(=O)C(c2ccc(C#N)cc2)n2c(=O)c(-c3cc4ccccc4[nH]3)nc3ccccc32)cc1 (stereo not given) | inconclusive: 141 µM [inhibitor, partial curve, poor fit] |  |
| CC(=O)NC1=NN(C(C)=O)C2(S1)C(=O)N(C)c1c(C)cccc12 (stereo not given) | inactive |  |
| CCS(=O)(=O)N1CC2(C1)CN(S(=O)(=O)c1cccc(OC)c1)[C@@H](CO)c1[nH]c3cc(OC)ccc3c12 | inconclusive: 44.7 µM [inhibitor, partial curve, poor fit] |  |
| CCN(CC)CCOC(=O)c1cccc(Cl)c1 | inconclusive: 50.1 µM [inhibitor, partial curve, poor fit] |  |
| Cc1nc2scc(CC(=O)N3CCCC3)n2c(=O)c1-c1cc(C)n(-c2ccc(F)cc2)n1 | inconclusive: 17.8 µM [inhibitor, partial curve] |  |
| CN1CCN(c2ccc(CNS(=O)(=O)c3ccsc3)cc2)CC1 | inconclusive: 112 µM [inhibitor, single point] |  |
| COCc1ccc(C(=O)NCC2(N3CCCCC3)CCCCC2)cc1 | inconclusive: 0.316 µM [inhibitor, full curve, poor fit] |  |

Structural class: those above with a nitro group on carbon (2)

| Structure (SMILES) | Potency | activity change, negative = inhibition |
| --- | --- | --- |
| COc1ccc(NS(=O)(=O)c2ccc(-n3nnc4ccccc43)c([N+](=O)[O-])c2)cc1 | inconclusive: 44.7 µM [inhibitor, partial curve, poor fit] |  |
| COc1cccc(N2CCN(c3ccc(S(=O)(=O)N4CCN(C)CC4)cc3[N+](=O)[O-])CC2)c1 | inconclusive: 44.7 µM [inhibitor, partial curve, poor fit] |  |
